Reference: patent US20240002501A1
Results are given in words; binding and its absence hold for the method and conditions named. Some binding calls cover weakened binding; strength is not graded here.

Chains of the proteins cited; added tags and fusions are not shown. Residues count along the entry.
UniProt P32004, residues 20-1120: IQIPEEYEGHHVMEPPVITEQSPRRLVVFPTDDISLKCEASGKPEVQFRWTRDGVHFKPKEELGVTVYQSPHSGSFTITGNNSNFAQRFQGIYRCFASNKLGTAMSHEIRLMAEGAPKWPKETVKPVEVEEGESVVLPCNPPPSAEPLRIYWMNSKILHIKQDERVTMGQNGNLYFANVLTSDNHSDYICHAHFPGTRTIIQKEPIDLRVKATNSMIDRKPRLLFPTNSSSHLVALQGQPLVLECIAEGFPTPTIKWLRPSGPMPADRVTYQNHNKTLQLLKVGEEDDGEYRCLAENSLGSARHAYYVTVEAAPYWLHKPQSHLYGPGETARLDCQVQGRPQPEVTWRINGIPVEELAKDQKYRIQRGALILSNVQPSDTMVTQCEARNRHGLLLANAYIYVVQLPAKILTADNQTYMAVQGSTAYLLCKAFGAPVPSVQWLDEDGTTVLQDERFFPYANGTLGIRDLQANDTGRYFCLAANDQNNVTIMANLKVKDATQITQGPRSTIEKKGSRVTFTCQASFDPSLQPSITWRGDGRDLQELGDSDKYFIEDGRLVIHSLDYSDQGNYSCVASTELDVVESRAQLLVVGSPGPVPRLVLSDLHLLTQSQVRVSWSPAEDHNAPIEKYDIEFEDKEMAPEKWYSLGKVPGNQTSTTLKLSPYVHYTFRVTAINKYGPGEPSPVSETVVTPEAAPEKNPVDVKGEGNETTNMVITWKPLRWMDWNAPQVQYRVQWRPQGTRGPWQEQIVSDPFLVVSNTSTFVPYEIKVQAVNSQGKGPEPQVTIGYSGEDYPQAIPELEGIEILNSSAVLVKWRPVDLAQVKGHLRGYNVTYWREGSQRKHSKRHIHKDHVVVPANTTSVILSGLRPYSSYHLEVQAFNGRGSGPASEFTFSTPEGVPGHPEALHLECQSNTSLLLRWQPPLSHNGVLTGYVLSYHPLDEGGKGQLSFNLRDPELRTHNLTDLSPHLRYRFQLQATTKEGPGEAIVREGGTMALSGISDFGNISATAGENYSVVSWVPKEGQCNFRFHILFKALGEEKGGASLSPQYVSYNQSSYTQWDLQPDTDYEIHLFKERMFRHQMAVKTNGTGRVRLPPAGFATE

Columns and labels:
[1] = biological target: L1-CAM-Fc (UniProt P32004); assay: SPR (Biacore T100), L1-CAM-Fc immobilized on CM5 chip
[2] = biological target: L1-CAM-Fc (UniProt P32004); assay: worded affinity comparison; the filing's affinity assay is SPR on L1-CAM-Fc (FIG. 28-30)
[3] = biological target: L1-CAM-Fc (UniProt P32004); assay: SPR sensorgram (Biacore T100), L1-CAM-Fc immobilised on CM5 chip

binding [1]: binds | binding [2]: binds | binding [3]: binds
B1: huE72-IgG1 (huE72 H1/L2) (antibody, V domains shown)
VH: QVQLVQPGAEVVKPGASVKLSCKASGYTFTGYWMHWVKQAPGQGLEWIGEINPSNGRTNYNERFKSKATLTVDKSITTAFMELSRLRSDDTAVYFCARDYYGTSYNFDYWGQGTLLTVSS
VL: DIQMTQSPSSLSVSVGDRVTITCKANEDINNRLAWYQQKPGKAPKLLISGATNLVTGVPSRFSGSGSGTDYTLTISSLQPEDFATYYCQQYWSTPFTFGQGTELEIKR
